Values from PubChem BioAssay AID1053208 (Peter MacCallum Cancer Centre, 2014)
Here is an unselected part of about 17,000 reagents. 788 of them (4.7%) were called active. 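Calls rest on z-score classes alone; an extra cut-off of viability at most 70% of control was not applied to them.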 A number with no mark means an inactive call. Some reagents were tested in more than one well and are listed for each.

Test: 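Find knock-downs that sensitise mouse osteosarcoma cells to doxorubicin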 (primary screen)
Cells: mouse osteosarcoma cells, early-passage culture from an engineered mouse model of fibroblastic bone tumour
Reagents: siRNA pool against mouse genes, 40 nM
Timing: about 120 h (48 h before drug, then 72 h with drug)
Challenge: doxorubicin 100 nM for 72 h, roughly 30-40% inhibitory dose
Read-out: 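Viability read as ATP luminescence after 72 h of 100 nM doxorubicin or none, duplicate wells averaged, scaled to non-targeting siRNA, then expressed as robust z-scores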
Scale: viability z-score with doxorubicin and doxorubicin viability vs non-targeting: higher = more viable cells under doxorubicin; viability z-score without drug: higher = more viable cells with knock-down alone; z-score of drug to no-drug ratio: higher = less drug sensitisation by knock-down
Rule for the call: 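Called active if knock-down leaves viability unchanged without drug (z within -2 to 2) but lowers it with doxorubicin (z at or under -2)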

gene	combined z-score class	viability z-score with doxorubicin	viability z-score without drug	z-score of drug to no-drug ratio	doxorubicin viability vs non-targeting
Sptssb	low cell count without drug only	-1.12	-2.19	0.45	0.84
Ccdc80	no change with or without drug	0.67	1.18	0	1
Foxred1	no change with or without drug	0.34	-0.51	0.79	0.97
Abca2	no change with or without drug	0.9	0.17	0.9	1.02
Tmem11	no change with or without drug	1.24	1.52	0.34	1.05
Ccdc93	no change with or without drug	0.45	-1.85	2.14	0.98
Zfp61	no change with or without drug	-1.35	-0.17	-1.24	0.82
Insm2	no change with or without drug	-0.67	-0.51	-0.22	0.88
Wars2	no change with or without drug	1.8	1.18	1.12	1.1
Cmtm6	no change with or without drug	1.57	0.34	1.46	1.08
Rcan2	no change with or without drug	0	0.84	-0.45	0.94
1700029M20Rik	low cell count with doxorubicin only (active)	-3.15	0.84	-3.6	0.66
Ccn5	high cell count without drug only	0.22	2.02	-0.9	0.96
Cubn	no change with or without drug	0.45	-0.84	1.24	0.98
9230112E08Rik	no change with or without drug	0.22	-0.17	0.45	0.96
9230112E08Rik	high cell count with doxorubicin only	2.25	1.52	1.35	1.14
A930024E05Rik	no change with or without drug	-0.9	1.18	-1.57	0.86
Rpl27	low cell count with and without drug	-3.82	-6.24	0.56	0.6
Zfp566	no change with or without drug	-0.34	0.67	-0.67	0.91
Ndrg4	no change with or without drug	0.67	0.51	0.45	1
Clnk	no change with or without drug	-1.35	-0.17	-1.24	0.82
Rdh13	no change with or without drug	-1.57	-1.01	-0.9	0.8
Tnni3k	no change with or without drug	0.22	0.84	-0.22	0.96
Usp46	no change with or without drug	1.57	-0.17	1.91	1.08
Abra	no change with or without drug	1.57	-0.17	1.91	1.08
Pus10	no change with or without drug	-0.9	0.34	-1.01	0.86
Ces2b	no change with or without drug	0.22	-0.17	0.45	0.96
Eif6	no change with or without drug	-1.57	-0.51	-1.24	0.8
Or11g1	no change with or without drug	1.24	1.69	0.22	1.05
Trem5	no change with or without drug	-0.67	0.17	-0.67	0.88
Zfp111	no change with or without drug	-1.57	-0.84	-1.01	0.8
Pou2af1	no change with or without drug	0.9	1.85	-0.22	1.02
Ptpdc1	no change with or without drug	-0.67	-0.51	-0.22	0.88
Klhl10	no change with or without drug	-0.22	1.52	-1.12	0.92
Dctn4	no change with or without drug	1.12	-0.51	1.69	1.04
Dis3l	no change with or without drug	-0.22	-1.01	0.56	0.92
Klra17	no change with or without drug	0.56	1.69	-0.45	0.99
Or1e33	no change with or without drug	-1.24	1.01	-1.8	0.83
Osbpl2	no change with or without drug	-1.69	-0.34	-1.46	0.79
Tnxb	no change with or without drug	-0.45	-0.17	-0.22	0.9
Tst	high cell count without drug only	1.01	2.36	-0.45	1.03
Piga	no change with or without drug	-0.45	0.17	-0.45	0.9
Gng13	no change with or without drug	-0.11	0.17	-0.11	0.93
Ednra	no change with or without drug	-0.45	-1.52	0.79	0.9
Nudt1	no change with or without drug	0	-0.17	0.22	0.94
Mettl1	low cell count with and without drug	-3.6	-3.54	-1.57	0.62
Cd300e	high cell count without drug only	0.34	2.02	-0.79	0.97
Clec1b	no change with or without drug	1.24	-1.01	2.25	1.05
Arhgef2	no change with or without drug	-0.45	0.84	-0.9	0.9
Or5p59	no change with or without drug	-1.69	-0.17	-1.57	0.79
